Chains of the proteins cited; added tags and fusions are not shown.
UniProt Q9FY48: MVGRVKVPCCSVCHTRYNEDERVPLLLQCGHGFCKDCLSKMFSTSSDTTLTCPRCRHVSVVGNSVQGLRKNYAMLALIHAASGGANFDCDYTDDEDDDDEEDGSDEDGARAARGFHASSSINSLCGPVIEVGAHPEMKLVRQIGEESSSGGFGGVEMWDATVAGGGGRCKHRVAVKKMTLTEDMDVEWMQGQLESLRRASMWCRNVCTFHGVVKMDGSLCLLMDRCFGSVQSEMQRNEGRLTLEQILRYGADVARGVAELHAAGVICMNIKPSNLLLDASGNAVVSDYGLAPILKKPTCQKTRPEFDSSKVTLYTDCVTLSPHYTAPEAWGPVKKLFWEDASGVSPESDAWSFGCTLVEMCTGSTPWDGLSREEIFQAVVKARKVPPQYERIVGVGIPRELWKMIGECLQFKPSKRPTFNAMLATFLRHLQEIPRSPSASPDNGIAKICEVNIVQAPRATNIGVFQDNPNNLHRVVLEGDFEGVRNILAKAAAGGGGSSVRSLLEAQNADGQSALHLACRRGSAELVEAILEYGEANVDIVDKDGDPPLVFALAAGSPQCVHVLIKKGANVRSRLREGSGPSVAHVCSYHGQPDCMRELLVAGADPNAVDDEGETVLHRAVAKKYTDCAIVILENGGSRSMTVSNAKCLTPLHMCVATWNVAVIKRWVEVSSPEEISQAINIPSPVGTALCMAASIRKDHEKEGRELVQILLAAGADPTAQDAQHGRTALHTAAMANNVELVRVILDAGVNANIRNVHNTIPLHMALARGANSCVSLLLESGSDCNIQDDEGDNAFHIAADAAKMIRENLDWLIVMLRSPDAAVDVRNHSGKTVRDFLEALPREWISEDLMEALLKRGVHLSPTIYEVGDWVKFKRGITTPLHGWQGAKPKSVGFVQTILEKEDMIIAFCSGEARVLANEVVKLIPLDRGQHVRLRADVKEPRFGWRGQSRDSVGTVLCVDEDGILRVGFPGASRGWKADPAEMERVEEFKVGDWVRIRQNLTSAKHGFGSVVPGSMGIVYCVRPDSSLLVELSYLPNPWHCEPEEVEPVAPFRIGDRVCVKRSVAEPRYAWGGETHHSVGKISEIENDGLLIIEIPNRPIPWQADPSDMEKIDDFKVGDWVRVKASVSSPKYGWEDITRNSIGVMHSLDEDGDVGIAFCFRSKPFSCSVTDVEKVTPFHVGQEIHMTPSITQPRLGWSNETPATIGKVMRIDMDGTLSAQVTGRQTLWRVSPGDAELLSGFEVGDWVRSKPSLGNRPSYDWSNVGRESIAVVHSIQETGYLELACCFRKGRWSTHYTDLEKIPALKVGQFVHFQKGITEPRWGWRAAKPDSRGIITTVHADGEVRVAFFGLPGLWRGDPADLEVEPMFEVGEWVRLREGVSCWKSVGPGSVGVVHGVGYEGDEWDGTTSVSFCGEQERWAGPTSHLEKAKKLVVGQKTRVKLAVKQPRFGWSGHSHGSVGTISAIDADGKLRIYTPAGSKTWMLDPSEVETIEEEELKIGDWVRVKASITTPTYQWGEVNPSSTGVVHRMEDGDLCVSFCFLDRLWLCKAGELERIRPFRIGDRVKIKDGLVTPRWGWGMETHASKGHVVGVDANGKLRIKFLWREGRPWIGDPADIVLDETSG
UniProt Q9LYZ7: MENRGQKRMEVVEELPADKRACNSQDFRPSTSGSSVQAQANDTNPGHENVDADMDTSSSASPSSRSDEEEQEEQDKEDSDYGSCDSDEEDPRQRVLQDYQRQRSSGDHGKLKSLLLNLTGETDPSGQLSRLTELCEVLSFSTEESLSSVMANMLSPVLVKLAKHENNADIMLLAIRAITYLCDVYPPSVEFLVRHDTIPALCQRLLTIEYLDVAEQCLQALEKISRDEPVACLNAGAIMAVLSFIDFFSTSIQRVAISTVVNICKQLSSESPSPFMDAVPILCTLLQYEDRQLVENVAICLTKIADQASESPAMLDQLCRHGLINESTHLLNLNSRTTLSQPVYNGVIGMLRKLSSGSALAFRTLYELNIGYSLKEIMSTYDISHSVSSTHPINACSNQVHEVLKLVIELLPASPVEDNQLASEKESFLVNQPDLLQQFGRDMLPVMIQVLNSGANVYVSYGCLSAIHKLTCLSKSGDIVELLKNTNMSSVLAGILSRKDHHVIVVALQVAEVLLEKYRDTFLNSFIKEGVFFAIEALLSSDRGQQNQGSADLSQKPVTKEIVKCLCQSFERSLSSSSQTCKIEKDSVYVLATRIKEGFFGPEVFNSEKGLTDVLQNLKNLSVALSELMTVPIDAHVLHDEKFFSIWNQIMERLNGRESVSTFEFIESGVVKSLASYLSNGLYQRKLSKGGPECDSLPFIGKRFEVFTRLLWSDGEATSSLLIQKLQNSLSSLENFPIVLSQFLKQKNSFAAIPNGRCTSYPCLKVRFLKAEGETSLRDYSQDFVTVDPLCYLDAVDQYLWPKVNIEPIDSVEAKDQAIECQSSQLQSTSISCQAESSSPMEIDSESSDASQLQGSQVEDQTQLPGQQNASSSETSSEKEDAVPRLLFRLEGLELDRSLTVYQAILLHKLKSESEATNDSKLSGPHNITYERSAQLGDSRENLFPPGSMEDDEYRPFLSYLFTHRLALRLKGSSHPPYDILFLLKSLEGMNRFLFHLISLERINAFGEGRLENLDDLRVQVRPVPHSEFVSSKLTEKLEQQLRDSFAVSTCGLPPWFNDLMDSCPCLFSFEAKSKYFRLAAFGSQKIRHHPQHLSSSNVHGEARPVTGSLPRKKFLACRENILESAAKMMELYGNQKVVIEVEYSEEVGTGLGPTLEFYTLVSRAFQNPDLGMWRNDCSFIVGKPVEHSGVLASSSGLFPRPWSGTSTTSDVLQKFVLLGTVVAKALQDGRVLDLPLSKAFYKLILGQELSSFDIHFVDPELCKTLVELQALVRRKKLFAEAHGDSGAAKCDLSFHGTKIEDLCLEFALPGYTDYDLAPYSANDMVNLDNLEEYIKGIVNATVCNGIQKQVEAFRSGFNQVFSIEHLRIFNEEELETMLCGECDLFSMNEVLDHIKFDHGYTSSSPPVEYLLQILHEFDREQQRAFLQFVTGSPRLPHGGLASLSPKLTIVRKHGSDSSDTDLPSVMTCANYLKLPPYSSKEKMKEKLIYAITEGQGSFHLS
UniProt Q9FIB6: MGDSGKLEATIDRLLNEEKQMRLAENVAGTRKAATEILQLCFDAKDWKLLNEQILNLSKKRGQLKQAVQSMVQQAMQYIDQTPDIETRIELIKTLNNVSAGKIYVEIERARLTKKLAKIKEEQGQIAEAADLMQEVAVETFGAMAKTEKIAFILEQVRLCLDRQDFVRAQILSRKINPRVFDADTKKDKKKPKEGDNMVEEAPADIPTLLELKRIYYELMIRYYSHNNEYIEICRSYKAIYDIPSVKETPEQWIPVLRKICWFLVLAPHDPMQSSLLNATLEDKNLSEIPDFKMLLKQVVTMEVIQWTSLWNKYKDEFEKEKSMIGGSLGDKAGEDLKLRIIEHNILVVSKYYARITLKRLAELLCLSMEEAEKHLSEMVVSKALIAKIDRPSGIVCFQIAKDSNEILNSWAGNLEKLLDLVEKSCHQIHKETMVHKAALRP

According to PMC11020294:

B1: PAF2 (alpha ring of the 20S proteasome proteolytic unit) (protein, UniProt O23712 1-277)
chain: MFRNQYDTDVTTWSPTGRLFQVEYAMEAVKQGSAAIGLRSRSHVVLACVNKAQSELSSHQRKIFKVDDHIGVAIAGLTADGRVLSRYMRSESINHSFTYESPLPVGRLVVHLADKAQVCTQRSWKRPYGVGLLVGGLDESGAHLYYNCPSGNYFEYQAFAIGSRSQAAKTYLERKFESFQESSKEDLIKDAIMAIRETLQGETLKSSLCTVSVLGVDEPFHFLDQESIQKVIDTFEKVPEEEEDAGEGEAEPEAAPGAAGTGEQGGSGDQDVAPMEI

Molecular target: T1, GST-MAPKKK18 (Arabidopsis thaliana) (UniProt Q9ZVP5)
T1 sequence: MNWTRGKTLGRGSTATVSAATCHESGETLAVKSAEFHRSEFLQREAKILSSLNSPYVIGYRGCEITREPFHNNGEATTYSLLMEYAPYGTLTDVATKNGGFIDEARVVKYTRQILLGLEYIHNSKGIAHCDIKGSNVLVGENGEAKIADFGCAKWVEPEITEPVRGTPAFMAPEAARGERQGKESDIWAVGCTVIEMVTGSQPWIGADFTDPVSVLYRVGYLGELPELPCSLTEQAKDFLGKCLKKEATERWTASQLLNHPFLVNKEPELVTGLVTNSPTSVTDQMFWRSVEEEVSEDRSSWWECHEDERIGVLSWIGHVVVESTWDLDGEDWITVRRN
Test: affinity purification with mass spectrometry; recombinant GST-MAPKKK18 incubated with total extract of 7-d-old A. thaliana WT Col-0 seedlings (1× PBS pH 7.4, NaCl, 0.1% NP-40, 1 mM DTT, PMSF); bound proteins identified by LC-MS/MS (Orbitrap Velos, Mascot, TAIR10); GST-CDPK34 as control; only the target purified

Question: With “KEG E3 ubiquitin ligase (endogenous) (from UniProt Q9FY48 1-1625) (enzyme)” as the molecule, how does the binding read?
Answer: binds

Question: For “UPL4 HECT-type E3 ubiquitin ligase (endogenous) (from UniProt Q9LYZ7 1-1502) (enzyme)”, which binding is on record?
Answer: binds

Question: How did the binding turn out when “UPL1 HECT-type E3 ubiquitin ligase (endogenous) (from UniProt Q8GY23 1-3681) (enzyme)” was run?
Answer: binds

Question: How did the binding turn out when “RPN5a (19S regulatory unit of the 26S proteasome) (from UniProt Q9FIB6 1-442)” was run?
Answer: binds

Question: For B1, which binding is on record?
Answer: binds

Results are given in words; binding and its absence hold for the method and conditions named. In cells and extracts the contact can be indirect. Here binding means that the protein was enriched with, or labelled near, the bait; the list need not be complete. Tags and fused reporters may be left off the sequences shown.
